Type in all cases: cell-based
One experiment concerns PC3 (prostate). In words: In vitro cytotoxic activity (MTT) assay, PC3. Conditions: Homo sapiens, PC-3; PC3 cells, exposed for 96 hours; read-out: IC50, 50% inhibition of cell proliferation, PC3 (prostate). As to the method: (§1) Compounds 1-15 were screened for their in vitro cytotoxic activity utilizing a 3-(4,5-dimethyl-thiazol-2-yl)-2,5-diphenyltetrazolium bromide (MTT) assay against selected cancer human cell lines consisting of PC3 (prostate), HCT116 (colon), A375 (melanoma), H1299 (lung), MIAPaCa-2 (pancreas), HL60 (leukemia), MCF7 (breast), MDA-MB-231 (breast) (T. Mosmann, J. Immunol. Meth., 1983, 65, 55-63). The cells were cultured at 37° C. in RMPI1640 medium supplemented with 10% fetal bovine serum, 50 IU/mL penicillin, and 50 μg/mL streptomycin in a 5% CO2 incubator. All cells were sub-cultured 3 times/week by trypsinisation. Viable cells were seeded and allowed to adhere for 12 h before a test drug was added in 96-well plates at an initial density of 1.0×10^5 cells/mL. Tumour cell lines were separately exposed to various concentrations of the tested compounds followed by incubation at a temperature of 37° C. during 96 h inside a medium of fresh RMPI 1640. Cells were subsequently incubated at 37° C. using MTT at 0.5 mg/mL during 4 h. After removal of supernatant, formazan crystals were dissolved in isopropanol and the optical density was measured at 570 nm. CX-4945 was used as a positive control.

For the next experiment, the system named is HCT116 (colon). In words: In vitro cytotoxic activity (MTT) assay, HCT116. Conditions: Homo sapiens, HCT-116; HCT116 cells, exposed for 96 hours; read-out: IC50, 50% inhibition of cell proliferation, HCT116 (colon). As for the experimental part: as §1
The next experiment relates to A375 (melanoma). In words: In vitro cytotoxic activity (MTT) assay, A375. Conditions: Homo sapiens, A-375; A375 cells, exposed for 96 hours; read-out: IC50, 50% inhibition of cell proliferation, A375 (melanoma). As for the experimental part: as §1
For another experiment, the system named is H1299 (lung). In words: In vitro cytotoxic activity (MTT) assay, H1299. Conditions: Homo sapiens, NCI-H1299; H1299 cells, exposed for 96 hours; read-out: IC50, 50% inhibition of cell proliferation, H1299 (lung). As to the method:
as §1

For the next experiment, the system named is MIAPaCa-2 (pancreas). In words: In vitro cytotoxic activity (MTT) assay, MIAPaCa-2. Conditions: Homo sapiens, MIA PaCa-2; MIAPaCa-2 cells, exposed for 96 hours; read-out: IC50, 50% inhibition of cell proliferation, MIAPaCa-2 (pancreas). As to the method: as §1
A further experiment has as its system HL60 (leukemia). In words: In vitro cytotoxic activity (MTT) assay, HL60. Conditions: Homo sapiens, HL-60; HL60 cells, exposed for 96 hours; read-out: IC50, 50% inhibition of cell proliferation, HL60 (leukemia). As for the experimental part:
as §1

A further experiment relates to MCF7 (breast). In words: In vitro cytotoxic activity (MTT) assay, MCF7. Conditions: Homo sapiens; MCF7 cells, exposed for 96 hours; read-out: IC50, 50% inhibition of cell proliferation, MCF7 (breast). As for the experimental part:
as §1

The test system of the next experiment is MDA-MB-231 (breast). In words: In vitro cytotoxic activity (MTT) assay, MDA-MB-231. Conditions: Homo sapiens; MDA-MB-231 cells, exposed for 96 hours; read-out: IC50, 50% inhibition of cell proliferation, MDA-MB-231 (breast). As for the experimental part:
as §1

Consider `O=C(O)c1ccc2c(c1)nc(Nc1cccc(Cl)c1)c1ccncc12` [CX-4945], for which the IC50 in the experiment with PC3 (prostate) is 2000 nM; in the experiment with HCT116 (colon), 2300 nM; in the experiment with A375 (melanoma), 4100 nM; in the experiment on H1299 (lung), 2300 nM; with MIAPaCa-2 (pancreas), 1000 nM; in the experiment on HL60 (leukemia), 3700 nM. Also, the IC50 in the experiment on MCF7 (breast) worked out at 9100 nM; in the experiment on MDA-MB-231 (breast), 6200 nM.

The record behind these values is patent US11891390B1, “3-substituted amino-2-arylpyrrolo[2,3-c]pyridines as CK2 inhibitors” (KING FAISAL UNIVERSITY, priority 2023, dated 2024).
